Values of other authors, collected in patent US20050288213A1, “Combination therapy for the treatment of obesity” (priority 2002, published 2005).
Some entries share one result that the patent states for a list of compounds. Some compounds share one range, which may span the group rather than tell each member.

Conditions: cited from earlier work

In the case of `CCCCCCCCCCC[C@@H](C[C@@H]1OC(=O)[C@H]1CCCCCC)OC(=O)[C@H](CC(C)C)NC=O` [orlistat], the “weight loss of body weight for drug compared to placebo” value (monotherapy, literature studies) is given as 5%-10% and the body weight reduction (over a 6 month or a 1 year period) is given as “less than 10%”.
